According to PubChem BioAssay AID330 (DTP/NCI, 2004):
The list is a part of this screen's results and no random one: it is rich in T/C values a quarter to a half above the control, in often repeated tests (any T/C) and in doses without a T/C. Further doses and runs are listed elsewhere. T/C is the treated group as % of the vehicle group. Some entries give survivors of the animals treated and no T/C: the source files T/C as zero there, which appears to mark a toxic dose or a test without result, not a measured value. Some survivor counts are full or nearly so, which does not show that the dose was tolerated: the source hardly ever lists a survival T/C far under the control, and the zero likely stands for such cases as well. Survivors were counted at the toxicity check, usually on the fifth day, unless a day is given; later deaths do not show. Schedule codes are those of the source, read here as Q, the interval in days (D) or hours (H), X, the number of doses. Some entries were tested several times; the values are given in rising order. Where survival is the endpoint, this PubChem deposit counts one and a half times the control or more as active, and values a quarter to a half above the control carry no call in these data; other NCI protocols may use other cut-offs. Some T/C values are followed by the survivors on the day toxicity was checked, most often the fifth; without a count, all were alive then. Additions like (4×) give the number of equal values in this list.

Tested on: P388 leukemia ip, CD2F1 mice, survival T/C
Assay: NCI In Vivo Anticancer Drug Screen. Data for tumor model P388 Leukemia (intraperitoneal) in CD2F1 (CDF1) mice
Settings: T/C endpoint: median survival time, higher T/C = longer survival
[1] = dose: 50.0 mg/kg/injection, schedule: Q04DX003 (ip), vehicle: Klucel (hydroxypropylcellulose) (HPC)
[2] = dose: 100.0 mg/kg/injection, schedule: Q01DX005 (ip), vehicle: Klucel (hydroxypropylcellulose) (HPC)
[3] = dose: 100.0 mg/kg/injection, schedule: Q01DX009 (ip), vehicle: Klucel (hydroxypropylcellulose) (HPC)
[4] = dose: 100.0 mg/kg/injection, schedule: Q04DX003 (ip), vehicle: Klucel (hydroxypropylcellulose) (HPC)
[5] = dose: 200.0 mg/kg/injection, schedule: Q01DX005 (ip), vehicle: Klucel (hydroxypropylcellulose) (HPC)
[6] = dose: 200.0 mg/kg/injection, schedule: Q01DX009 (ip), vehicle: Klucel (hydroxypropylcellulose) (HPC)
[7] = dose: 200.0 mg/kg/injection, schedule: Q04DX003 (ip), vehicle: Klucel (hydroxypropylcellulose) (HPC)
[8] = dose: 400.0 mg/kg/injection, schedule: Q04DX002 (ip), vehicle: Klucel (hydroxypropylcellulose) (HPC)
[9] = dose: 400.0 mg/kg/injection, schedule: Q04DX003 (ip), vehicle: Klucel (hydroxypropylcellulose) (HPC)

NCCC(=O)NCCSSCCNC(=O)CCN was tested, and the survivor count (dose: 400.0 mg/kg/injection, schedule: Q04DX003 (ip), vehicle: saline) was 3 of 6.

CC[N+](C)(CC)c1ccccc1 was tested, and the survivor count (dose: 100.0 mg/kg/injection, schedule: Q04DX002 (ip), vehicle: saline) was 0 of 6.

In the case of O=Cc1ccc([N+](=O)[O-])s1, the T/C (dose: 6.25 mg/kg/injection, schedule: Q01DX009 (ip), vehicle: saline) is reported as 107, 113, 123, 184 % of control, the T/C (dose: 12.5 mg/kg/injection, schedule: Q01DX009 (ip), vehicle: saline) is reported as 116, 124, 138, 205 % of control and the T/C (dose: 25.0 mg/kg/injection, schedule: Q01DX009 (ip), vehicle: saline) is reported as 131, 140, 147, 236 % of control. The T/C (dose: 50.0 mg/kg/injection, schedule: Q01DX009 (ip), vehicle: saline) was 130 and 131 % of control, the survivor count (dose: 100.0 mg/kg/injection, schedule: Q01DX009 (ip), vehicle: saline with Tween-80) was 0 of 6 and the survivor count (dose: 200.0 mg/kg/injection, schedule: Q01DX009 (ip), vehicle: saline with Tween-80) was 0 of 6. For the same molecule, the survivor count (dose: 400.0 mg/kg/injection, schedule: Q01DX009 (ip), vehicle: saline with Tween-80) was 0 of 6.

For NC(=S)N/N=C/c1ccc(O)cn1, the T/C (dose: 9.4 mg/kg/injection, schedule: Q01DX009 (ip), vehicle: saline with Tween-80) was 143 % of control, the T/C (dose: 18.8 mg/kg/injection, schedule: Q01DX009 (ip), vehicle: saline) was 144 % of control and the T/C (dose: 25.0 mg/kg/injection, schedule: Q01DX005 (ip), vehicle: Klucel (hydroxypropylcellulose) (HPC)) was 118, 119, 121, 123, 124 [5 of 6 alive], 125, 127, 128, 130, 133, 138, 139 (2×), 142 (2×), 143, 147 (2×), 148, 149 (2×), 150, 151 (3×), 152 (2×), 153 (3×), 154, 156, 161 (2×), 163, 168 % of control. For the same molecule, the T/C (dose: 25.0 mg/kg/injection, schedule: Q01DX009 (ip), vehicle: Klucel (hydroxypropylcellulose) (HPC)) was 129 [2 of 3 alive], 135, 139 (3×), 141, 143, 145, 147, 149, 150 (3×), 151, 153, 155, 156, 157, 158, 159, 161 (2×), 163 (3×), 163 [5 of 6 alive], 168, 169 (2×), 174, 180, 181, 183, 184, 185 % of control, the T/C (dose: 25.0 mg/kg/injection, schedule: Q04DX003 (ip), vehicle: Klucel (hydroxypropylcellulose) (HPC)) was 135 % of control and the T/C (dose: 37.5 mg/kg/injection, schedule: Q01DX009 (ip), vehicle: saline with Tween-80) was 145 % of control. For the same molecule, the T/C (dose: 50.0 mg/kg/injection, schedule: Q01DX001 (ip), vehicle: Klucel (hydroxypropylcellulose) (HPC)) was 93 [4 of 6 alive], 100, 104 [2 of 3 alive], 105 [2 of 3 alive], 109 (2×), 113, 116, 117 (2×), 119, 120, 121, 122, 123, 125, 126, 127, 127 [5 of 6 alive], 128 (4×), 129, 131, 132 (2×), 134, 138, 139, 146 [2 of 3 alive], 147 % of control, the T/C (dose: 50.0 mg/kg/injection, schedule: Q01DX005 (ip), vehicle: Klucel (hydroxypropylcellulose) (HPC)) was 121, 124, 125, 130, 131, 133 [5 of 6 alive], 138, 140, 142 (3×), 143, 144, 150, 153 (2×), 156 (2×), 157 (2×), 160 (2×), 163 (2×), 165 (3×), 166, 168, 169, 171 (2×), 175, 177 (2×), 179 % of control and the T/C (dose: 50.0 mg/kg/injection, schedule: Q01DX009 (ip), vehicle: Klucel (hydroxypropylcellulose) (HPC)) was 96, 130 [2 of 3 alive], 135, 150, 151 (2×), 159 (2×), 163 (2×), 165, 166 (2×), 170, 171 (3×), 175 (3×), 179, 179 [5 of 6 alive], 180, 181, 182, 183, 184, 185, 187, 188, 191 (2×), 198, 213, 223 % of control. The T/C (dose: 50.0 mg/kg/injection, schedule: Q04DX002 (ip), vehicle: Klucel (hydroxypropylcellulose) (HPC)) was 98, 100, 111 (2×), 112, 113 (2×), 116, 121, 122, 123 (3×), 127 (2×), 129, 131 (2×), 132, 133 (3×), 135, 136, 137, 139 (2×), 140, 143, 145, 150, 151, 153, 163, 170 % of control, the T/C [1] was 100, 115, 116 [5 of 6 alive], 119, 120, 121 (2×), 125 (2×), 128 (2×), 130, 134 (2×), 135, 136 (2×), 137, 138, 139, 140 (2×), 141, 142, 143, 144, 144 [5 of 6 alive], 145 (2×), 149, 151, 155, 159, 163, 165 % of control and the survivor count [1] was 3 of 3 and 6 of 6. For the same molecule, the survivor count (dose: 75.0 mg/kg/injection, schedule: Q01DX009 (ip), vehicle: other) was 6 of 6, the T/C (dose: 100.0 mg/kg/injection, schedule: Q01DX001 (ip), vehicle: Klucel (hydroxypropylcellulose) (HPC)) was 93, 100, 109, 119, 122, 123 (3×), 125 (3×), 127, 128 (2×), 130, 131, 132 (4×), 134 (3×), 135, 138 (2×), 142, 144 (2×), 145 (2×), 154 % of control and the T/C [2] was 88, 104, 121, 138 (2×), 141, 146, 150, 151 (2×), 154 (2×), 155, 157, 158, 159, 166, 174, 176 (2×), 177, 178, 180, 182 (2×), 183, 188, 189 (2×), 191, 198 [5 of 6 alive], 199, 200, 206, 218 % of control. The survivor count [2] was 3 of 3, the T/C [3] was 86, 92, 98, 103, 140, 145, 170, 174, 183, 185, 192, 196, 198, 199, 202 (2×), 204, 209, 213 % of control and the survivor count [3] was 3 of 3 and 6 of 6. The T/C (dose: 100.0 mg/kg/injection, schedule: Q04DX002 (ip), vehicle: Klucel (hydroxypropylcellulose) (HPC)) was 87 [2 of 3 alive], 101, 109, 112, 115, 118 (2×), 120 (2×), 122, 124, 125, 126, 129, 129 [5 of 6 alive], 130 (2×), 131, 135, 138, 141 (2×), 144, 145 (2×), 146, 148, 150, 151, 152, 153, 160, 161, 162, 163 % of control, the T/C [4] was 100, 112 (2×), 113, 121, 122, 126, 128, 130, 134, 136, 139, 141, 142, 145, 148, 150 (2×), 151, 153, 155, 157, 158 (3×), 160, 165, 168 (2×), 171, 173, 174, 195 % of control and the survivor count [4] was 0 of 6, 3 of 3, 6 of 6. For the same molecule, the survivor count (dose: 150.0 mg/kg/injection, schedule: Q01DX009 (ip), vehicle: other) was 6 of 6, the survivor count (dose: 150.0 mg/kg/injection, schedule: Q01DX009 (ip), vehicle: saline with Tween-80) was 6 of 6 and the survivor count (dose: 150.0 mg/kg/injection, schedule: Q01DX009 (ip), vehicle: saline) was 5 of 6. The T/C (dose: 200.0 mg/kg/injection, schedule: Q01DX001 (ip), vehicle: Klucel (hydroxypropylcellulose) (HPC)) was 93, 103, 126, 127, 128, 131, 132, 134, 135 (2×), 136, 137, 139, 140, 141 (4×), 142, 143, 145 (2×), 146, 147, 148, 149, 150 (2×), 151, 153, 154, 161 % of control, the T/C [5] was 88, 130, 133, 146, 147, 152, 157, 160, 179, 209 % of control and the survivor count [5] was 1 of 6, 1 of 3, 2 of 3, 4 of 6, 5 of 6, 3 of 3, 6 of 6. For the same molecule, the T/C [6] was 89, 96, 207 % of control, the survivor count [6] was 1 of 3, 2 of 6, 2 of 3, 4 of 6, 3 of 3, 6 of 6 and the T/C (dose: 200.0 mg/kg/injection, schedule: Q04DX002 (ip), vehicle: Klucel (hydroxypropylcellulose) (HPC)) was 100, 115, 120, 128, 130, 131, 134 (2×), 135 (2×), 136, 137, 138, 139, 142, 147 (3×), 148 (2×), 149, 151, 152, 154 (2×), 155, 159, 160, 163, 168, 172 (2×), 178, 183, 206 % of control. For the same molecule, the T/C [7] was 96, 119, 131, 144, 145 (2×), 147 (2×), 148, 149, 154, 155, 158 (2×), 159, 160, 162, 163, 165 (3×), 166 (2×), 168 (2×), 169 (2×), 170, 171, 178, 181, 182, 184 % of control (2×), the survivor count [7] was 3 of 3 and 6 of 6 and the survivor count (dose: 300.0 mg/kg/injection, schedule: Q01DX009 (ip), vehicle: saline) was 2 of 6. For the same molecule, the T/C (dose: 400.0 mg/kg/injection, schedule: Q01DX001 (ip), vehicle: Klucel (hydroxypropylcellulose) (HPC)) was 99, 100, 110, 127, 129, 129 [5 of 6 alive], 134, 138, 142 (3×), 144 (2×), 145, 146, 149 (2×), 150, 152 (2×), 156 (2×), 157, 158 (2×), 159 (2×), 160, 163, 175 % of control, the T/C [8] was 89, 94, 100, 114, 115, 125, 129 (2×), 137, 148 (2×), 159, 160, 163 (2×), 166 (3×), 169 [5 of 6 alive], 175 [5 of 6 alive], 191, 203, 204 % of control and the survivor count [8] was 2 of 3, 3 of 3, 6 of 6. For the same molecule, the T/C [9] was 87, 90 (2×), 93, 111, 112, 113, 120, 123, 128, 142, 147, 153, 186, 191, 192, 195, 216 % of control and the survivor count [9] was 2 of 3, 3 of 3, 6 of 6.

For CCC(/C=C/c1ccc(OC)cc1)=N/Nc1ccccc1, the T/C (dose: 240.0 mg/kg/injection, schedule: Q01DX005 (ip), vehicle: other) was 128 % of control.

For Fc1c2ccccc2c2ccc3cccc4ccc1c2c43, the T/C (dose: 200.0 mg/kg/injection, schedule: Q04DX002 (ip), vehicle: saline with Tween-80) was 135 % of control, the T/C (dose: 400.0 mg/kg/injection, schedule: Q04DX002 (ip), vehicle: saline with Tween-80) was 135 % of control and the survivor count (dose: 400.0 mg/kg/injection, schedule: Q04DX002 (ip), vehicle: saline) was 0 of 6.
